Measurements taken from patent US20210238225A1 (DANA-FARBER CANCER INSTITUTE, INC., priority 2018, published 2021).

Assay: general procedure: Fmoc solid-phase peptide synthesis; Wang resin (1.45 meq/g); Rink Amide resin for some peptides; HATU/DIPEA
Settings: late stage modification step
With “Methyl (S)-5-((S)-2-(((S)-1-(((S)-1-amino-1-oxo-5-ureidopentan-2-yl)amino)-3-(1H-indol-3-yl)-1-oxopropan-2-yl)carbamoyl)piperidin-1-yl)-4-(2-fluoroacetamido)-5-oxopentanoate” the step yield was 65%. “(S)-5-((S)-2-(((S)-1-(((S)-1-Amino-1-oxo-5-ureidopentan-2-yl)amino)-3-(naphthalen-2-yl)-1-oxopropan-2-yl)carbamoyl)piperidin-1-yl)-5-oxo-4(vinylsulfonamido)pentanoic acid” gave a step yield of 20%. In the case of “(S)—N—((S)-1-(((S)-1-(((S)-1-Amino-6-(6-((4S,5R)-5-methyl-2-oxoimidazolidin-4-yl)hexanamido)-1-oxohexan-2-yl)amino)-1-oxo-5-ureidopentan-2-yl)amino)-3-(1H-indol-3-yl)-1-oxopropan-2-yl)-1-(N-(2-chloroacetyl)-N-methyl-L-phenylalanyl)-piperidine-2-carboxamide”, the step yield is reported as 70%. For “(S)-5-((S)-2-(((S)-1-(((S)-1-Amino-1-oxo-5-ureidopentan-2-yl)amino)-3-(naphthalen-2-yl)-1-oxopropan-2-yl)carbamoyl)piperidin-1-yl)-4-(2,5-dioxo-2,5-dihydro-1H-pyrrol-1-yl)-5-oxopentanoic acid”, the step yield was 26%. “(S)—N—((S)-3-(1H-indol-3-yl)-1-(((S)-1-((4-methylbenzyl)amino)-1-oxo-5-ureidopentan-2-yl)amino)-1-oxopropan-2-yl)-1-(methyl-L-phenylalanyl)piperidine-2-carboxamide” gave a step yield of 80%. “tert-Butyl ((S)-1-((S)-2-(((S)-3-(1H-indol-3-yl)-1-(((S)-1-((4-methylbenzyl)amino)-1-oxo-5-ureidopentan-2-yl)amino)-1-oxopropan-2-yl)carbamoyl)piperidin-1-yl)-1-oxo-3-phenylpropan-2-yl)(methyl)carbamate” gave a step yield of 40%. In the case of “(S)-5-((S)-2-(((S)-1-(((S)-1-Amino-1-oxo-5-ureidopentan-2-yl)amino)-3-(1H-indol-3-yl)-1-oxopropan-2-yl)carbamoyl)piperidin-1-yl)-4-(2-fluoroacetamido)-5-oxopentanoic acid”, the step yield is reported as 75%. In the case of “Methyl (4S)-5-((S)-2-(((S)-1-(((S)-1-amino-1-oxo-5-ureidopentan-2-yl)amino)-3-(1H-indol-3-yl)-1-oxopropan-2-yl)carbamoyl)piperidin-1-yl)-4-(oxirane-2-carboxamido)-5-oxopentanoate”, the step yield is reported as 29%. For “Ethyl (S)-2-((S)-2-((S)-1-(N-(2-chloroacetyl)-N-methyl-L-phenylalanyl)piperidine-2-carboxamido)-3-(1H-indol-3-yl)propanamido)-5-ureidopentanoate”, the step yield was 40%. In the case of “(S)-2-((S)-2-((S)-1-(N-(tert-Butoxycarbonyl)-N-methyl-L-phenylalanyl)piperidine-2-carboxamido)-3-(1H-indol-3-yl)propanamido)-5-ureidopentanoic acid”, the step yield is reported as 80%. For “Ethyl (S)-2-((S)-3-(1H-indol-3-yl)-2-((S)-1-(methyl-L-phenylalanyl)piperidine-2-carboxamido)propanamido)-5-ureidopentanoate”, the step yield was 52%. For “(S)—N—((S)-3-(1H-indol-3-yl)-1-(((S)-1-((4-methylbenzyl)amino)-1-oxo-5-ureidopentan-2-yl)amino)-1-oxopropan-2-yl)-1-(N-(2-chloroacetyl)-N-methyl-L-phenylalanyl)piperidine-2-carboxamide”, the step yield was 85%. Substance “Methyl (S)-5-((S)-2-(((S)-1-(((S)-1-amino-1-oxo-5-ureidopentan-2-yl)amino)-3-(1H-indol-3-yl)-1-oxopropan-2-yl)carbamoyl)piperidin-1-yl)-4-(2-chloroacetamido)-5-oxopentanoate” has a step yield of 54%. “(S)—N—((S)-3-(1H-indol-3-yl)-1-(((S)-1-((4-methylbenzyl)amino)-1-oxo-5-ureidopentan-2-yl)amino)-1-oxopropan-2-yl)-1-((cyanomethyl)-L-phenylalanyl)piperidine-2-carboxamide” showed a step yield of 58%.
